According to PubChem BioAssay AID901 (National Center for Advancing Translational Sciences (NCATS), 2007):
Some of the results follow. Further columns of the screen follow, without active or inactive calls. The list favours compounds with an active or inconclusive main result. The note in brackets gives the kind of curve behind each potency; many fits are weak.

Experiment: qHTS Assay for Identifying the Cell-Membrane Permeable IMPase Inhibitors
Conditions: CHO-M1 cells, IP1 accumulation, HTRF TR-FRET ratio; measured here: donor channel 620 nm AC50

Compound	AC50
COc1ccc(-c2[nH]c(-c3ccccc3)nc2SCC(=O)Nc2ccc3c(c2)OCO3)cc1	22.4 µM [falling, single point]
N/C(=N\OC(=O)c1cc(Cl)ccc1Cl)c1cccnc1	31.6 µM [rising, single point]
COC(=O)c1cn(-c2ccccc2)c(C)c1C(=O)OC	3.16 µM [falling, single point]
CCc1ccc(NC(=O)N(CCCOC(C)C)C2CCN(C(C)=O)CC2)cc1	0.501 µM [falling, full curve]
Cc1ccc(NC(=O)Cc2nc(CSc3nnc(-c4ccc5c(c4)OCO5)o3)cs2)cc1	31.6 µM [falling, single point]
Cc1ccc(S(=O)(=O)N2C(=O)CCC2C(=O)Nc2ccc3c(c2)OCCO3)cc1 (stereo unspecified)	35.5 µM [falling, single point]
O=C(CSc1nc(Nc2ccccc2)nc(N2CCOCC2)n1)N1CCc2ccccc21	10 µM [falling, partial curve, poor fit]
Cn1c(=O)c2[nH]c(-c3ccccc3)c(O)c2n(C)c1=O	12.6 µM [falling, partial curve]
CC1(C)Cc2cccc(OCC(O)CNCc3ccccn3)c2O1 (stereo unspecified)	3.16 µM [rising, partial curve, poor fit]
COc1ccc(N(CC(=O)Nc2cc(C)ccc2OC)S(=O)(=O)c2c(C)noc2C)cc1	0.0398 µM [rising, full curve, poor fit]
Cc1ccc(C)n1-c1ccccc1N	0.2 µM [rising, partial curve]
CC(=O)Nc1ccc(NC(=O)C(F)(F)F)cc1	0.2 µM [falling, full curve]
Cc1ccc(-c2nc(NC(=O)CSc3nnnn3-c3ccccc3)ns2)cc1	12.6 µM [rising, partial curve]
CSc1nnnn1CCn1nnnc1SC	39.8 µM [rising, partial curve, poor fit]
Cc1ccccc1C(=O)c1cccn1CC(=O)N1CCCCCC1	0.794 µM [falling, full curve, poor fit]
CN1CCN(c2ncnc3c2[nH]c2ccc(F)cc23)CC1	12.6 µM [falling, partial curve, poor fit]
Cn1c(NC(=O)/C=C/c2ccccc2)cc(=O)n(C)c1=O	3.55 µM [rising, partial curve]
N#Cc1c(SCC(N)=O)nc(-c2ccccc2)c2c1CCCC2	5.01 µM [rising, partial curve, poor fit]
N#CCC(=O)Nc1ccccc1C(=O)O	0.02 µM [falling, full curve, poor fit]
Cc1ccc(OCCN2C(=O)CSC2=O)cc1	0.501 µM [falling, full curve, poor fit]
COc1ccc(-c2[nH]c(-c3ccc(C(=O)O)cc3)nc2-c2ccccc2)cc1	20 µM [rising, partial curve, poor fit]
O=S(=O)(NCCC(c1ccc(F)cc1)c1ccco1)c1ccccc1 (stereo unspecified)	35.5 µM [rising, single point]

In the list so far, these have a cyano group:
Compound	AC50
N#Cc1c(SCC(N)=O)nc(-c2ccccc2)c2c1CCCC2	5.01 µM [rising, partial curve, poor fit]
N#CCC(=O)Nc1ccccc1C(=O)O	0.02 µM [falling, full curve, poor fit]

Arranged by heavy-atom count (rising): some entries from above.
Compound	AC50
N#Cc1c(SCC(N)=O)nc(-c2ccccc2)c2c1CCCC2	5.01 µM [rising, partial curve, poor fit]
Cc1ccc(S(=O)(=O)N2C(=O)CCC2C(=O)Nc2ccc3c(c2)OCCO3)cc1 (stereo unspecified)	35.5 µM [falling, single point]
Cc1ccc(NC(=O)Cc2nc(CSc3nnc(-c4ccc5c(c4)OCO5)o3)cs2)cc1	31.6 µM [falling, single point]

The list goes on.

Compound	AC50
O=C(NC1CCCCCCC1)c1ccc2c(c1)N(Cc1ccc(F)cc1)C(=O)CS2=O (stereo unspecified)	0.0316 µM [rising, full curve, poor fit]
CC(C)CC(=O)Nc1cccc2c1C(=O)N(c1ccccc1)C2=O	0.1 µM [rising, single point]
O=C(c1ccc(F)cc1F)N(Cc1ccccn1)Cc1ccco1	0.0126 µM [rising, full curve, poor fit]
Clc1nc(-c2ccccc2)cc(-c2ccccc2)n1	0.501 µM [falling, full curve, poor fit]
Cc1cccc(-n2c(SCC(N)=O)nnc2-c2ccccn2)c1C	0.631 µM [falling, single point]
CCOC(=O)C(NC(=O)Cc1ccccc1)(Nc1cc(C)on1)C(F)(F)F (stereo unspecified)	0.251 µM [rising, single point]
Cc1nn(Cc2ccc(Cl)cc2Cl)c(C)c1NC(=O)CCl	12.6 µM [falling, single point]
Cc1noc(C)c1C(=O)OCC(=O)c1c[nH]c2ccccc12	3.98 µM [falling, single point]
Cc1ccc(S(=O)(=O)N(C)C)cc1-n1c(SCC(=O)Nc2ccc(F)cc2)nc2ccccc2c1=O	0.0251 µM [falling, full curve, poor fit]
Cc1ccc(C(=O)Nc2ccc(S(=O)(=O)N3CCN(C)CC3)cc2)o1	8.91 µM [falling, partial curve, poor fit]
CCOC(=O)N1CCN(C(=O)c2nn(-c3ccc(C)cc3)c(=O)c3c2c2ccccc2n3C)CC1	25.1 µM [rising, single point]
COC(=O)[C@@H](NC(=O)NC1CCCc2ccccc21)C(C)C (stereo partly specified)	0.501 µM [rising, partial curve, poor fit]
O=C(O)c1ccc(S(=O)(=O)c2ccccc2)cc1	0.0251 µM [falling, full curve, poor fit]
Cc1onc(-c2ccccc2)c1C(=O)Nc1nnc(-c2ccncc2)s1	12.6 µM [rising, partial curve, poor fit]
COc1ccc(-c2noc(-c3ccc(Br)o3)n2)cc1OC	31.6 µM [rising, single point]
COc1ccc(Nc2ccc3c(c2)=NC2(CCCCC2)[N+]=3[O-])cc1	12.6 µM [falling, single point]
COc1ccc(CCNC(=O)c2cc(=O)[nH]c3ccc(Br)cc23)cc1OC	35.5 µM [rising, single point]
O=[N+]([O-])c1ccc(COc2cccc(CNc3ccc(F)cc3)c2)cc1	5.62 µM [falling, single point]
COc1ccccc1-c1cc(-c2ccccc2)nc(SC(C(N)=O)c2ccccc2)c1C#N (stereo unspecified)	31.6 µM [rising, single point]
CC(=O)Nc1ccc(/C=C/c2noc(-c3ccccc3O)n2)cc1	0.447 µM [falling, partial curve]
CCOC(=O)c1ccc(NC(=O)CN2C(=O)C(CC)SC(CC)C2=O)cc1 (stereo unspecified)	0.00631 µM [rising, full curve, poor fit]
COc1ccc(-c2noc(CCC(=O)N(C)c3cc(Cl)ccc3OC)n2)cc1	5.62 µM [falling, single point]

Compound	AC50
COc1ccc(NC(=O)CN2CCN(c3ccccc3F)CC2)cc1	0.00631 µM [rising, full curve, poor fit]
OC(COCc1ccccc1)CN1CCN(c2ccccc2F)CC1 (stereo unspecified)	31.6 µM [rising, single point]
Cn1c(=O)[nH]c(=O)c2c1nc(Br)n2CCCc1ccccc1	0.141 µM [falling, full curve, poor fit]
CCOC(=O)c1c(NC(=O)CN2C(=O)NC3(CCCCC3)C2=O)sc(C)c1-c1ccc(C)cc1	35.5 µM [rising, single point]
Cc1cc(Cl)cc(C)c1OCCCCN1CCOCC1	25.1 µM [rising, single point]
NS(=O)(=O)c1ccc(NC(=O)COC(=O)CCC2CCCCC2)cc1	35.5 µM [rising, single point]
OCC(C#CCN1CCCCC1)NCc1ccccc1 (stereo unspecified)	0.0631 µM [rising, partial curve, poor fit]
Nc1nnnn1/N=C\c1ccc(Cl)c([N+](=O)[O-])c1	0.126 µM [falling, full curve, poor fit]
CCCN(CCC)C(=S)NC(=O)c1ccc(Cl)cc1Cl	3.98 µM [falling, partial curve, poor fit]
Cn1c(=O)[nH]c(=O)c2c1nc(NC1CCCCC1)n2Cc1ccccc1	3.98 µM [falling, full curve]
CCOC(=O)c1c(NC(=O)/C=C/c2ccc(C)o2)sc(C)c1C	20 µM [rising, single point]
COc1ccc2[nH]c(C(=O)O)c(NS(=O)(=O)c3ccc(OC)c(OC)c3)c2c1	0.0316 µM [falling, full curve, poor fit]
Cc1ccc(C)c(NC(=O)C2Cc3ccccc3CN2C(=O)OCc2ccccc2)c1 (stereo unspecified)	0.2 µM [rising, full curve, poor fit]
O=C(NC1CCCCC1)N1CCN(c2ccccc2)CC1	31.6 µM [falling, single point]
Cn1c(SCC(=O)Nc2nccs2)nnc1-c1ccco1	3.16 µM [falling, partial curve]
N#Cc1cn(Cc2cccc(Cl)c2)c2ccccc12	0.501 µM [falling, single point]
CC(C)CN(C(=O)COC(=O)CCc1c[nH]c2ccccc12)C1CCS(=O)(=O)C1 (stereo unspecified)	1.26 µM [falling, single point]
COc1ccc(-c2nnc(CSc3nc4ccccc4c(=O)n3C)o2)cc1OC	12.6 µM [rising, single point]
COc1ccccc1C(=O)n1nc(-c2ccc(Cl)cc2)nc1N	0.0447 µM [falling, single point]
Cc1ccc(NS(=O)(=O)c2ccc3nc(-c4ccccc4)[nH]c3c2)cc1Cl	0.0224 µM [falling, full curve, poor fit]
CNC(=O)c1cc2ccccc2o1	0.794 µM [falling, full curve]
O=C(CCS(=O)(=O)c1cc(Br)cc2c1N(C(=O)C1CC1)CC2)N1CCN(c2ccccc2)CC1	1.12 µM [falling, full curve, poor fit]
